Test results: the supplement of paper PMC10032668
The other results are listed elsewhere or left out. The list holds hits alone, and they repeat only in part.

Columns and labels:
Experiment in all cases: PRISMA enrichment of interactor (LFQ) in peptide spot vs all other peptide spots (log2 fold change); higher = stronger / more specific binding of the interactor to the peptide
DCD, P81605 = target: DCD, P81605
Procedure: (§1)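 PRISMA: 15-aa overlapping tiles (offset 8 aa) of 60 microproteins, plus SOS1/GLUT1 control peptides, were spot-synthesized on cellulose membranes in triplicate. Membranes were incubated with benzonase-treated HEK293T lysate, and bound proteins were identified by LC-MS/MS with LFQ. Enrichment is the log2 fold change of each protein in one spot versus all other spots. Only interactors passing the significance cutoff are listed.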

DDX31, Q9H8H2 = target: DDX31, Q9H8H2
Procedure: as §1

DSTN, P60981 = target: DSTN, P60981
Procedure: as §1

FN1, P02751 = target: FN1, P02751
Procedure: as §1

HERC5, Q9UII4 = target: HERC5, Q9UII4
Procedure: as §1

NELFE, P18615 = target: NELFE, P18615
Procedure: as §1

NTMT1, Q9BV86 = target: NTMT1, Q9BV86
Procedure: as §1

NUP50, Q9UKX7 = target: NUP50, Q9UKX7
Procedure: as §1

PPP4R2, Q9NY27 = target: PPP4R2, Q9NY27
Procedure: as §1

RANBP3, Q9H6Z4 = target: RANBP3, Q9H6Z4
Procedure: as §1

RBM7, Q9Y580 = target: RBM7, Q9Y580
Procedure: as §1

RRS1, Q15050 = target: RRS1, Q15050
Procedure: as §1

TMEM201, Q5SNT2 = target: TMEM201, Q5SNT2
Procedure: as §1

UQCRFS1, P47985 = target: UQCRFS1, P47985
Procedure: as §1

DCUN1D5, Q9BTE7 = target: DCUN1D5, Q9BTE7
Procedure: as §1

HDGF, P51858 = target: HDGF, P51858
Procedure: as §1

HSPBP1, Q9NZL4 = target: HSPBP1, Q9NZL4
Procedure: as §1

NDUFA9, Q16795 = target: NDUFA9, Q16795
Procedure: as §1

RRP15, Q9Y3B9 = target: RRP15, Q9Y3B9
Procedure: as §1

SERPINA1, P01009 = target: SERPINA1, P01009
Procedure: as §1

STIP1, P31948 = target: STIP1, P31948
Procedure: as §1

DCTN1, Q14203 = target: DCTN1, Q14203
Procedure: as §1

IPO9, Q96P70 = target: IPO9, Q96P70
Procedure: as §1

LSM12, Q3MHD2 = target: LSM12, Q3MHD2
Procedure: as §1

NSA2, O95478 = target: NSA2, O95478
Procedure: as §1

SF3A3, Q12874 = target: SF3A3, Q12874
Procedure: as §1

DEF8, Q6ZN54 = target: DEF8, Q6ZN54
Procedure: as §1

HIST1H1E, P10412 = target: HIST1H1E, P10412
Procedure: as §1

IST1, P53990 = target: IST1, P53990
Procedure: as §1

MRPL39, Q9NYK5 = target: MRPL39, Q9NYK5
Procedure: as §1

PPAN-P2RY11 = target: PPAN-P2RY11
Procedure: as §1

SBNO1, A3KN83 = target: SBNO1, A3KN83
Procedure: as §1

TF, P02787 = target: TF, P02787
Procedure: as §1

ZFR, Q96KR1 = target: ZFR, Q96KR1
Procedure: as §1

DDX10, Q13206 = target: DDX10, Q13206
Procedure: as §1

DNAJB1, P25685 = target: DNAJB1, P25685
Procedure: as §1

ESYT2, A0FGR8 = target: ESYT2, A0FGR8
Procedure: as §1

NAA15, Q9BXJ9 = target: NAA15, Q9BXJ9
Procedure: as §1

PAK1IP1, Q9NWT1 = target: PAK1IP1, Q9NWT1
Procedure: as §1

PDCD6IP, Q8WUM4 = target: PDCD6IP, Q8WUM4
Procedure: as §1

RAB6A, P20340 = target: RAB6A, P20340
Procedure: as §1

RBM8A, Q9Y5S9 = target: RBM8A, Q9Y5S9
Procedure: as §1

SLC25A22, Q9H936 = target: SLC25A22, Q9H936
Procedure: as §1

YWHAZ, P63104 = target: YWHAZ, P63104
Procedure: as §1

ZNF768, Q9H5H4 = target: ZNF768, Q9H5H4
Procedure: as §1

GEAAAAAAAGFGAAG [TUG1]
PRISMA enrichment of interactor (log2) (DCD, P81605): 7.51 | PRISMA enrichment of interactor (log2) (DDX31, Q9H8H2): 8.56 | PRISMA enrichment of interactor (log2) (DSTN, P60981): 6.27 | PRISMA enrichment of interactor (log2) (FN1, P02751): 4.6 | PRISMA enrichment of interactor (log2) (HERC5, Q9UII4): 4.08 | PRISMA enrichment of interactor (log2) (NELFE, P18615): 6.2 | PRISMA enrichment of interactor (log2) (NTMT1, Q9BV86): 5.76 | PRISMA enrichment of interactor (log2) (NUP50, Q9UKX7): 3.76 | PRISMA enrichment of interactor (log2) (PPP4R2, Q9NY27): 4.87 | PRISMA enrichment of interactor (log2) (RANBP3, Q9H6Z4): 4.59 | PRISMA enrichment of interactor (log2) (RBM7, Q9Y580): 4.91 | PRISMA enrichment of interactor (log2) (RRS1, Q15050): 5.36 | PRISMA enrichment of interactor (log2) (TMEM201, Q5SNT2): 4.47 | PRISMA enrichment of interactor (log2) (UQCRFS1, P47985): 6.98

MSLRNLWRDYKVLVV [MKKS]
PRISMA enrichment of interactor (log2) (DCUN1D5, Q9BTE7): 6.28 | PRISMA enrichment of interactor (log2) (HDGF, P51858): 4.37 | PRISMA enrichment of interactor (log2) (HSPBP1, Q9NZL4): 4.77 | PRISMA enrichment of interactor (log2) (NDUFA9, Q16795): 4.32 | PRISMA enrichment of interactor (log2) (RRP15, Q9Y3B9): 5.79 | PRISMA enrichment of interactor (log2) (SERPINA1, P01009): 4.99 | PRISMA enrichment of interactor (log2) (STIP1, P31948): 9.07

ASRETRKWTPWLLES [C5orf56]
PRISMA enrichment of interactor (log2) (DCTN1, Q14203): 5.03 | PRISMA enrichment of interactor (log2) (IPO9, Q96P70): 7.34 | PRISMA enrichment of interactor (log2) (LSM12, Q3MHD2): 4.91 | PRISMA enrichment of interactor (log2) (NSA2, O95478): 5.5 | PRISMA enrichment of interactor (log2) (SF3A3, Q12874): 4.59

MGALFRLLLQERGKA [LINC01560]
PRISMA enrichment of interactor (log2) (DEF8, Q6ZN54): 10.6 | PRISMA enrichment of interactor (log2) (HIST1H1E, P10412): 6.23 | PRISMA enrichment of interactor (log2) (IST1, P53990): 7.88 | PRISMA enrichment of interactor (log2) (MRPL39, Q9NYK5): 5.65 | PRISMA enrichment of interactor (log2) (PPAN-P2RY11): 5.35 | PRISMA enrichment of interactor (log2) (SBNO1, A3KN83): 5.72 | PRISMA enrichment of interactor (log2) (SERPINA1, P01009): 7.35 | PRISMA enrichment of interactor (log2) (TF, P02787): 4.74 | PRISMA enrichment of interactor (log2) (ZFR, Q96KR1): 6.3

CRSSLSAPAAWARPA [RAB12]
PRISMA enrichment of interactor (log2) (DDX10, Q13206): 4.47 | PRISMA enrichment of interactor (log2) (DNAJB1, P25685): 5.82 | PRISMA enrichment of interactor (log2) (ESYT2, A0FGR8): 7.92 | PRISMA enrichment of interactor (log2) (NAA15, Q9BXJ9): 4.51 | PRISMA enrichment of interactor (log2) (PAK1IP1, Q9NWT1): 5.55 | PRISMA enrichment of interactor (log2) (PDCD6IP, Q8WUM4): 6.73 | PRISMA enrichment of interactor (log2) (RAB6A, P20340): 4.38 | PRISMA enrichment of interactor (log2) (RBM8A, Q9Y5S9): 4.39 | PRISMA enrichment of interactor (log2) (SLC25A22, Q9H936): 4.48 | PRISMA enrichment of interactor (log2) (YWHAZ, P63104): 4.97 | PRISMA enrichment of interactor (log2) (ZNF768, Q9H5H4): 4.86
